{"source": "patent US20210401931A1", "about": "“METHODS AND MATERIALS FOR TREATING CANCER” (Mayo Foundation for Medical Education and Research, priority 2018, published 2021)", "key": {"NFκB target genes": {"system": "NFκB target genes", "assay": "Expression of NFκB target genes in PC-3 cells (RNA-seq, RT-qPCR)", "type": "cell-based, human", "conditions": "palbociclib 5 μM, 24 hours, RNA-seq and RT-qPCR", "procedure": "FIGS. 4A-G. RB globally regulates NFkB transcriptional program in cells. […] (F, G) PC-3 cell were treated with or without palbociclib (5 μM) for 24 hours or PC-3 cells were infected with lentivirus expressing control shRNA or RB-specific shRNA following puromycin selection after 48 hours infection. Cells were harvested for RT-qPCR (F) and ChIP-qPCR (G) analysis of p65 binding at the promotor of PD-L1, GADD45B, NR4A2, and CD83. All data were shown as mean values±SD (n=3). * P<0.05, ** P<0.01, ***P<0.001.\nFIGS. 16A-K. Mutual exclusivity of PTEN and MAP3K7 gene deletion in human cancers and CDK4/6 inhibition-mediated blockage of MAP3K7 deficiency-induced death of PTEN-null cells. (A) Genetic alterations of MAP3K7 and PTEN genes in the TCGA prostate cancer dataset. (B) Genetic alterations of MAP3K7 and PTEN genes in lymphoid neoplasm diffuse large B-cell lymphoma, stomach adenocarcinoma, pancreatic cancer, liver cancer, bladder urothelial carcinoma, and lung adenocarcinoma. (C-E) PC-3 cells were infected with lentivirus expressing control or MAP3K7-specific shRNAs. […]\nFIGS. 17A-I. Negative regulation of MAP3K7-IKK-NFκB and CHD1-NFκB signaling by RB. […] 72 hours after infection and puromycin selection, cells were injected s.c. into the right flank of NSG mice, and tumor growth was measured for 21 days. […]"}, "[1]": {"system": "MAP3K7- and CHD1-KD PC-3 cells", "assay": "PARP and caspase-3 cleavage and Annexin-V apoptosis assays in MAP3K7- and CHD1-KD PC-3 cells", "type": "cell-based, human", "conditions": "MAP3K7- or CHD1-KD PC-3 cells, palbociclib 5 μM, 24 hours"}, "Pd-L1 mRNA": {"system": "Pd-L1 mRNA", "assay": "Pd-L1 mRNA by RT-qPCR in Rb1-deficient mouse cells (DKO, Rb-/- PrE)", "type": "cell-based", "conditions": "24 hours"}, "[2]": {"system": "p65 binding at the promotor of PD-L1, GADD45B, NR4A2, and CD83", "assay": "ChIP-qPCR of p65 binding at NFκB target gene promoters in PC-3 cells", "type": "cell-based, human", "conditions": "palbociclib 5 μM, 24 hours"}}, "note": "At least one compound was matched to its structure with a doubt left.", "data": [{"smiles": "CC(=O)c1c(C)c2cnc(Nc3ccc(N4CCNCC4)cn3)nc2n(C2CCCC2)c1=O", "note": "[palbociclib, Palbociclib]", "values": [{"measurement": "expression of NFκB targets PD-L1, GADD45B, NR4A2, CD83", "setting": "NFκB target genes", "value": "upregulated"}, {"measurement": "PARP and caspase-3 protein cleavage and Annexin-V apoptosis", "setting": "[1]", "value": "protective effect"}, {"measurement": "Pd-L1 mRNA expression in Rb1-deficient mouse prostate cancer and non-cancerous cell lines", "setting": "Pd-L1 mRNA", "value": "failed to induce"}, {"measurement": "p65 binding at genomic loci of NFκB target genes including PD-L1", "setting": "[2]", "value": "substantially increased"}]}]}
